# Measurements taken from PubChem BioAssay (NCATS).
# “And” between values parts separate entries of the source, which are not always exact repeats. Equal values may be shown once. This is one part of the list. The main result of the screen is listed elsewhere. These columns were measured beside it and carry no call. Most of these compounds were active or inconclusive in the main read-out, so they are no random draw. Potencies come from curve fits of mixed quality, noted in brackets.
# Experiment: qHTS assay for small molecule antagonists of peroxisome proliferator-activated receptor gamma signaling (AID 588537)
# Conditions: HEK293 PPARg-UAS-bla, beta-lactamase ratio, antagonist mode; measured here: W460 blue channel
# In short: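 PPARγ-UAS-bla HEK293 cells (3000/well) in 1% charcoal/dextran-stripped FBS are treated with compound, then stimulated with 50 nM rosiglitazone for 16 h at 37 °C. Read-out is CCF4 β-lactamase fluorescence after 2 h at RT. IC50 comes from Hill fits normalised to rosiglitazone and DMSO.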
row,Structure (SMILES),AC50
1,c1ccc(OP(Oc2ccccc2)Oc2ccccc2)cc1,"70.8 µM [rising, single point]"
2,CC(C)[N+](=O)[O-],"70.8 µM [rising, single point]"
3,CC(=O)CCC(C)=O,"70.8 µM [rising, single point]"
4,ClCC(Cl)Cl,"50.1 µM [rising, single point]"
5,C=C(C)C(=O)OCC(CC)CCCC (configuration not stated),"0.00126 µM [falling, full curve, poor fit]"
6,C=CC1CC=CCC1 (configuration not stated),"50.1 µM [rising, single point]"
7,C=CCBr,"50.1 µM [rising, single point]"
8,Nc1ccc(Cl)c(Cl)c1,"20 µM [falling, partial curve, poor fit]"
9,BrCCBr,"50.1 µM [rising, single point]"
10,c1ccc(Nc2cccc3ccccc23)cc1,"44.7 µM [falling, partial curve, poor fit] and 44.7 µM [falling, partial curve]"
11,O=C(O)c1cc(Cl)ccc1Cl,"63.1 µM [rising, single point]"
12,Clc1cccc(Cl)c1,"70.8 µM [rising, single point]"
13,C=CCOCC1CO1 (configuration not stated),"63.1 µM [rising, single point]"
14,CCOP(=O)(NC(C)C)Oc1ccc(S(C)=O)c(C)c1 (configuration not stated),"0.00112 µM [falling, full curve, poor fit]"
15,C=CCOC(=O)c1ccccc1N,"63.1 µM [rising, single point]"
16,Oc1c(Cl)c(Cl)cc(Cl)c1Cl,"28.2 µM [falling, partial curve]"
17,Cc1ccnc2c1NC(=O)c1cccnc1N2C1CC1,"50.1 µM [rising, single point]"

# A few values from the list:
# Entry of C=CCBr under AC50: 50.1 µM [rising, single point]
# Entry of ClCC(Cl)Cl under AC50: 50.1 µM [rising, single point]
